Literature values as cited in patent US20030007996A1, “Therapies for the prevention and treatment of diabetes and obesity” (priority 2001, published 2003).
Some results were stated once for a whole list of compounds, not compound by compound.

Conditions: oral ingestion of 4-6 mg/kg; cited from earlier work

Compound	plasma concentrations
Cn1c(=O)c2c(ncn2C)n(C)c1=O [caffeine]	25 to 40 µM
Cn1c(=O)c2[nH]cnc2n(C)c1=O [theophylline]	25 to 40 µM
